Experimental data from patent publication US8722622B2, “FGF21 conjugates and anti-diabetic uses thereof” (COVX Technologies Ireland, Limited, priority 2010, dated 2014).
Some results were stated once for a whole list of compounds, not compound by compound.

System: Glut1 mRNA expression in differentiated 3T3-L1 adipocytes
Assay: Glut1 Taqman assay
Type: cell-based
Conditions: 6 hrs
Experimental: Differentiated 3T3-L1 adipocytes were used to measure the Glut1 mRNA expression by qPCR method. Overnight serum starved day 10-14 differentiated 3T3-L1 adipocytes were treated with compounds for 6 hrs. Total RNA was extracted from these cells, and Glut1 and GAPDH mRNA expression was measured using a Quantitect Probe RT-PCR kit and running a quantitative real time PCR reaction in a Taqman machine (Applied Biosystems®). The bioactivity of the compounds was determined by a fold change in Glut1 mRNA levels normalized by the GAPDH mRNA levels from each sample. EC50 values as measurements of the potency of the compounds were obtained from the dose response curves in the assay.
3T3-L1 adipocytes were seeded at day 8 in 24-well tissue culture plates (Falcon®, Cat#353047), and incubated in DMEM complete medium (10% FBS, 2 mM L-glutamine, 1% P/S) at 37° C., 5% CO2. […] The medium was aspirated, and then RNA extracted from the cells using the RNeasy mini Kit according to the manufacturer's instructions. RNA was measured at A260 nm using the Spectramax® Plus spectrophotometer.

B1: Ab-L1-FGF21ΔH-H125C: FGF21ΔH-H125C combined with L1 at H125C and conjugated with h38C2 (conjugate, listed as Homo sapiens)
chain: PIPDSSPLLQFGGQVRQRYLYTDDAQQTEAHLEIREDGTVGGAADQSPESLLQLKALKPGVIQILGVKTSRFLCQRPDGALYGSLHFDPEACSFRELLLEDGYNVYQSEAHGLPLHLPGNKSPHRDPCPRGPARFLPLPGLPPALPEPPGILAPQPPDVGSSDPLSMVGPSQGRSPSYAS
modifications: conjugated via L1 linker to h38C2 antibody
B1 gave an EC50 of under 4 nM.
